In US6890727B2, “Diagnostic assay for Alzheimer's disease: assessment of Aβ abnormalities” (The General Hospital Corporation, priority 1994, dated 2005):

Assay: Zinc-induced tinctorial amyloid formation (Congo Red, polarized light)
Format: physicochemical
Settings: incubation with Zn^2+
Protocol: FIGS. 8a and 8b are photographs showing zinc-induced tinctorial amyloid formation. […] The particle diameter is 40μ. […] The experiment was repeated with EDTA (50 μM) substituted for Zn^2+ and yielded no visible material.
The particle diameter is 40μ. […] The experiment was repeated with EDTA (50 μM) substituted for Zn^2+ and yielded no visible material.

Substance	birefringence of Congo Red stained precipitate under polarized light
Aβ1-40: synthetic peptide representing secreted human Aβ1-40, 4.3 kDa, main component of Alzheimer cerebral amyloid	green birefringence
rat Aβ1-40: rat/mouse species of Aβ1-40; Arg→Gly, Tyr→Phe, His→Arg at positions 5, 10 and 13 (DAEFGHDSGFEVRHQKLVFFAEDVGSNKGAIIGLMVGGVV; Amyloid-beta protein 40; UniProt P08592 672-711, looked up)	minimal birefringence
